The record followed here is PubChem BioAssay AID493014 (National Center for Advancing Translational Sciences (NCATS), 2011).

Some of the results follow. These are further read-outs of the screen, such as a control signal, another cell line or another target. No call is given for them. Most of these compounds were active or inconclusive in the main read-out, so they are no random draw. Words in brackets tell the shape of the fitted curve; partial curves, single points and poor fits give uncertain potencies.

A short description of this test: qHTS Assay to Find Inhibitors of Chronic Active B-Cell Receptor Signaling. As to conditions: ABC-DLBCL IkBa-CBG/CBR reporter, luminescence ratio (green luciferase fused to IkBa over red control in TMD8 lymphoma cells), 4 h. The gist of the method: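 TMD8 ABC-DLBCL cells carrying doxycycline-inducible green luciferase fused to IkappaBalpha plus unfused red luciferase were exposed to compounds (up to 46 uM) for 4 hrs at 37C. Activity came from the overlap-corrected green/red luminescence ratio.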
On the technique in general: Quantitative high-throughput screening tests each substance at several concentrations.

[1] abbreviates: measured here: CBR red luminescence, cell number.
Where [2] appears, read: measured here: IkBa-CBG green luminescence.

The term AC50 denotes the midpoint of the concentration-response curve, whichever way the signal moves. For `CCOc1ccc(C(=O)/C=C/c2cc(OC)c(OC)c(OC)c2)cc1`, the AC50 under setting [1] was 10 µM [falling, partial curve]. `CCOc1ccc2ccccc2c1/C=N\NC(=O)c1ccc([N+](=O)[O-])cc1`: the AC50 under setting [1] was 1.78 µM [rising, full curve, poor fit]. Take `CCOC(=O)C1=C(c2ccccc2)NC(N)=NC1c1ccc(OCc2ccc(C(=O)OC)cc2)cc1` (stereo not given): under setting [1], the AC50 was 17.8 µM [falling, single point]. Consider `COc1ccc(-n2cc(CNC3CCN(C)CC3)c(-c3cccc(F)c3)n2)cc1`, for which the AC50 under setting [1] is 7.08 µM [falling, full curve, poor fit]. With `CCOc1ccc(S(=O)(=O)Nc2cc(C)ccn2)c2ccccc12`, the AC50 under setting [1] is 32.6 µM [falling, partial curve, poor fit].

On to `COc1ccc(-c2cnnn2-c2ccc(NC(=O)c3ccco3)cc2)cc1OC`, for which the AC50 runs as follows: under setting [1], 3.55 µM [rising, single point]; under setting [2], 10 µM [falling, partial curve, poor fit]. For the compound `O=C(Nc1ccccc1F)c1ccc2snnc2c1`, the AC50 under setting [1] is 14.1 µM [falling, partial curve]. With `O=C(Nc1nc(-c2cccs2)cs1)c1cccc(S(=O)(=O)N2CCCCC2)c1`, under setting [1], the AC50 was 14.6 µM [falling, partial curve].

As for `COc1ccc(C)c2sc(N(CCCN(C)C)C(=O)c3ccc4c(c3)OCCO4)nc12`, the AC50 under setting [1] is 25.9 µM [falling, single point].

Regarding `COc1cccc(/C=C2/Sc3ccc(C(=O)NCCCN4CCCC4)cc3NC2=O)c1`, under setting [1], the AC50 was 3.16 µM [falling, partial curve, poor fit]. Take `O=C(Nc1ccccc1)/C(=C/c1ccccc1)c1ccccc1`: the AC50 under setting [1] is 2.82 µM [falling, single point]. Still for that read-out and setting: the same measure for `Cc1[nH]nc2c1-c1nc3ccccc3nc1C(C)(C)C2`: 31.6 µM [falling, single point]. On to `COc1ccc(/C=N/NC(=O)CCn2cnc(-c3ccccc3)c2-c2ccccc2)cc1`, for which the AC50 under setting [2] is 11.6 µM [falling, partial curve]. For the compound `O=C(/C=C/c1cccc(Cl)c1)c1ccc([N+](=O)[O-])o1`, the AC50 under setting [1] was 6.51 µM [falling, partial curve, poor fit]. As for `Cn1c(NCCc2ccccc2)cc(=O)n(C)c1=O`, under setting [1], the AC50 was 1.78 µM [rising, full curve]. For `COc1ccc(Cc2nnc(NC(=O)Nc3ccccc3OC)s2)cc1`, the AC50 under setting [1] was 2.51 µM [rising, full curve, poor fit]. The same measure, in the same setting: then `O=[N+]([O-])c1ccc(-n2cc(-c3ccccc3)nn2)cc1`, with 0.891 µM [rising, full curve, poor fit]; and `Nc1c(NCCN2CCCCC2)c2ccccc2oc1=O`, with 3.98 µM [falling, partial curve, poor fit]. In the case of `O=C(/C=C/c1ccccc1)NC(=S)NNC(=O)c1cnccn1`, the AC50 under setting [1] is 10 µM [falling, partial curve]. Regarding `CCCCN(C)CCn1c(=S)[nH]c2ncccc2c1=O`, the AC50 under setting [1] is 1.46 µM [falling, full curve, poor fit]. With `COC(=O)/C=C/C(=O)Nc1ccc(O)c(Cl)c1`, under setting [1], the AC50 is 23.1 µM [falling, single point]. For `CC(=O)Nc1ccccc1C(=O)C(=O)Nc1cccc(C(=O)N2CC(C)CC(C)C2)c1` (stereo not given), under setting [1], the AC50 was 20 µM [falling, single point]. Same read-out and setting: the same measure for `CC(=O)c1ccc(N(C(=O)Cc2c[nH]c3ccccc23)C(C(=O)NC2CCCCC2)c2cccs2)cc1` (stereo not given): 0.794 µM [falling, full curve]; for `CCOC(=O)c1c(S(=O)(=O)NCC(=O)Nc2ccc(Cl)c(C(F)(F)F)c2)c(C)n(C)c1C`: 35.5 µM [falling, single point]. As for `COc1cc(OC)cc(C(=O)Nc2ccccc2NC(C)=O)c1`, the AC50 under setting [1] is 29.1 µM [rising, partial curve, poor fit]. On to `COc1ccc(CCNC(=O)/C=C/c2ccc3ccccc3n2)cc1OC`, for which, under setting [1], the AC50 was 15.8 µM [falling, partial curve]. Turning to `CCCCNC(=O)CSc1nc(Cc2ccccc2)nc2ccccc12`, the AC50 under setting [1] was 35.5 µM [falling, single point]. Turning to `O=C(O)c1cc(O)c2c(c1)[C@@H]([C@H]1c3cc(C(=O)O)cc(O)c3C(=O)c3c(O[C@@H]4O[C@H](CO)[C@@H](O)[C@H](O)[C@H]4O)cccc31)c1cccc(O[C@@H]3O[C@H](CO)[C@@H](O)[C@H](O)[C@H]3O)c1C2=O`, under setting [1], the AC50 was 25.9 µM [falling, single point]. `COc1cccc(CNC(=O)CN2C(=O)c3ccccc3S2(=O)=O)c1`: the AC50 under setting [1] was 29.1 µM [falling, single point]. On to `NC(=O)c1c(NC(=O)Cc2cccs2)sc2c1CCC2`, for which the half-maximal activity concentration (AC50) under setting [1] was 10.3 µM [rising, partial curve]. The same measure, in the same setting: then `CN(CC(=O)Nc1ccc(N2CCOCC2)cc1)Cc1cc(=O)n2ccsc2n1`, with 10 µM [rising, partial curve].

Regarding `CCC(=O)Oc1ccc(-c2cnc3ccccc3n2)cc1`, the AC50 was 1.26 µM [rising, partial curve] under setting [1] and 3.55 µM [rising, full curve, poor fit] under setting [2]. As for `CCN1CCN(C(=O)c2ccc3c(c2)N(Cc2ccccc2)C(=O)c2ccccc2S3=O)CC1` (stereo not given), the AC50 under setting [1] is 35.5 µM [falling, single point]. In the case of `O=C(O)CCC(=O)Nc1ccc(/C=C/C(=O)C2CC2)cc1`, the AC50 under setting [1] is 3.16 µM [rising, single point]. As for `N/C(=N\OC(=O)Cc1cccs1)c1ccc(Br)cc1`, the half-maximal activity concentration (AC50) under setting [1] is 0.731 µM [rising, full curve, poor fit]. Turning to `COc1ccc(/C=C/C(=O)c2cc(Br)ccc(=O)c2O)cc1`, the AC50 under setting [1] was 29.1 µM [falling, single point].

Consider `COc1ccc(OC)c(NC(=O)C2CCC(CNc3c(N4CCOCC4)c(=O)c3=O)CC2)c1` (stereo not given), for which the AC50 under setting [1] was 5.01 µM [rising, full curve, poor fit].

For the compound `CC1Cc2ccccc2N1C(=O)CSc1nc2ccccc2o1` (stereo not given), the AC50 under setting [1] was 5.01 µM [rising, single point].

As for `COc1ccc(CN2CCC(CO)(CCOc3ccccc3)CC2)c(OC)c1C`, the AC50 under setting [1] is 22.4 µM [falling, single point]. As for `CC(C)NC(=O)NC(=O)COC(=O)/C=C/c1ccc2c(c1)OCO2`, the AC50 under setting [1] is 11.2 µM [rising, partial curve, poor fit].

`CC(=O)Nc1cccc(-c2cnc(N)c(C(=O)c3cccnc3)n2)c1`: under setting [1], the AC50 is 5.8 µM [falling, partial curve].

In the case of `Cn1c(-c2ccccc2)cnc1NCc1cc2c(cc1[N+](=O)[O-])OCO2`, under setting [1], the concentration at half-maximal activity (AC50) was 32.6 µM [falling, single point]. Regarding `CCN(C(=O)CSc1nc2cc(C(=O)OC)ccc2c(=O)n1Cc1ccco1)c1cccc(C)c1`, under setting [1], the AC50 is 2.82 µM [falling, single point]. Still for that read-out and setting: then `Cn1c(C2=C(O)CN(c3ccc4c(c3)OCCO4)C2=N)nc2ccccc21`, with 2.82 µM [rising, full curve, poor fit]; and `Cc1cc(C(=O)Nc2cccc3ccccc23)n(-c2ccccc2)n1`, with 4.47 µM [falling, full curve]; and `Cc1ccc(NC(=O)Cn2cnc3cc([N+](=O)[O-])ccc3c2=O)cc1`, with 2.82 µM [rising, partial curve, poor fit]. Same read-out and setting: then `CNC(=O)/C(C#N)=C/c1c(N2CCCCCC2)nc2c(C)cccn2c1=O`, with 10 µM [falling, single point]. Regarding `c1ccc(C2=Nn3c(nnc3-c3ccco3)SC2)cc1`, the half-maximal activity concentration (AC50) under setting [1] was 14.1 µM [falling, single point]. `Cc1cc(/C=C2\SC(=S)NC2=O)cc(C)c1O`: under setting [1], the AC50 was 0.562 µM [rising, full curve].

Consider `Cn1nnnc1SCC(=O)Nc1ccc(Br)cc1Cl`, for which the AC50 under setting [1] was 18.4 µM [rising, single point].

Regarding `COc1ccccc1CNC(=O)C[n+]1ccccc1`, the AC50 under setting [1] was 29.1 µM [falling, single point]. As to `O=C(NCCc1ccccc1)c1ccccc1NS(=O)(=O)N1CCCC1`, the AC50 under setting [1] was 29.1 µM [rising, single point].

Regarding `CC(C)NC(=O)c1ccc2c(=O)n(Cc3ccco3)c(=S)[nH]c2c1`, the AC50 under setting [1] is 3.16 µM [falling, partial curve, poor fit]. As for `Cc1ccc(NC(=O)CCC(=O)Nc2nnc(C3CCCCC3)s2)cc1`, the AC50 under setting [1] was 3.55 µM [rising, partial curve].

For `COc1ccc(S(=O)(=O)NCc2ccccn2)cc1NC(=O)c1ccccc1F`, the AC50 under setting [2] is 10 µM [falling, partial curve, poor fit]. Take `CCOc1ncccc1C(=O)OC(C)C(=O)Nc1ccc(N2CCOCC2)cc1` (stereo not given): the AC50 under setting [1] was 0.146 µM [rising, partial curve, poor fit]. Same read-out and setting: the same measure for `O=C(CNC(=O)c1ccc(-c2ccccc2)cc1)Nc1cccc(CO)c1`: 29.1 µM [falling, single point].

For `Cc1cc(NC(=O)CSc2nc(-c3ccco3)cc(C(F)(F)F)n2)no1`, the AC50 under setting [2] was 10.3 µM [falling, partial curve, poor fit]. With `O=c1c2cn[nH]c2nc(SCc2cc(=O)n3cc(Br)ccc3n2)n1-c1ccc(Br)cc1`, the AC50 under setting [1] is 35.5 µM [falling, single point].

Regarding `CNC(=O)c1ccc(-c2nc(-c3ccccc3)cs2)cc1`, the AC50 under setting [1] was 5.62 µM [rising, partial curve]. Take `Cc1ccc(/C(N)=N/OC(=O)c2cccs2)cc1`: under setting [1], the concentration at half-maximal activity (AC50) was 16.4 µM [falling, single point]. For the compound `COc1ccc(S(=O)(=O)N(C)CC(=O)Nc2ccc(C(F)(F)F)cc2)cc1Cl`, under setting [1], the AC50 was 29.1 µM [rising, single point].

For the compound `CCc1ccc(-n2c(SCC(=O)NC(C)CC)nc3n[nH]c(C)c3c2=N)cc1` (stereo not given), the AC50 under setting [1] was 12.6 µM [falling, partial curve, poor fit].
